Reference: US11951171B2, “Polypeptide EXP and its drug delivery system as well as extracellular vesicle extraction” (TIANJIN MEDICAL UNIVERSITY, priority 2019, dated 2024)

System: exosomes in serum
Test: Capture of serum exosomes with His-tagged peptide coated nickel beads
Settings: Western blot (FIG. 6D)
From the text: (A) Nano sight was used to detect the particle size of exosomes in serum captured by CP05 and EXP. It's shown by the results that the particle size of exosomes captured by EXP was about 50 nm, whose homogeneity was higher than that of exosomes recovered by ultra separation. […] It's shown by the results that exosomes captured by EXP has typical bi-layer structure, and the size of exosomes captured by EXP was smaller than that of exosomes recovered by ultrafiltration.(D) Western blot was used to detect the marker protein capturing exosome.
Experimental example 6: Characterization and functional validation of exosome captured from serum by EXP. • (1) His-tagged EXP and CP05 (100 μg) were respectively mixed with […] beads in 200 μl binding solution at 4° C. for 1 h under rotation. • (2) 1 ml pre-centrifuged serum was added to His-EXP and His-CP05 coated nickel beads (centrifuged at 4400 g for 20 min, followed by 13000 g for 5 min), and then incubated at 4° C. for 30 min; • (3) The serum was discarded and the nonspecific binding was washed with the washing solution for 3 times, 10 min each time. • (4) […] was used to recover extracellular vesicles.
6.1 Measurement of the size of captured exosomes. • (1) […] of exosomes recovered from elution were diluted into 1 ml of PBS. • (2) Nanosight was used to detect the size distribution of captured exosomes. […]

CRHKMWTVKSRL (EXP)
marker proteins of captured exosome: CD63, CD81 and HSC70
